The assay can be described thus: qHTS Assay to Find Inhibitors of Chronic Active B-Cell Receptor Signaling. Conditions: ABC-DLBCL IkBa-CBG/CBR reporter, luminescence ratio (green luciferase fused to IkBa over red control in TMD8 lymphoma cells), 4 h. Summed up:
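Doxycycline induced both beetle luciferases in TMD8 lymphoma cells; IKK-driven degradation limits the IkappaBalpha-fused green signal, while red luminescence normalises for cell number and nonspecific effects. Compounds tested up to 46 uM, 4 hrs.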
A general note: In qHTS, concentration-response curves come from the screen itself.

Setting [1] is: measured here: CBR red luminescence, cell number.
The mark [2] stands for this setting: measured here: IkBa-CBG green luminescence.

The list shows a part of the results. Further columns of the screen follow, without active or inactive calls. Most of these compounds were active or inconclusive in the main read-out, so they are no random draw. The note in brackets gives the kind of curve behind each potency; many fits are weak.

In general, AC50 refers to the concentration at which the activity in the assay is half-maximal. As to `CCc1n[n+](CC(=O)c2ccccc2)c(N)s1`, the AC50 under setting [1] is 7.94 µM [falling, partial curve, poor fit]. As to `COc1ccccc1N1C(=O)c2ccccc2NC1c1ccc(O)cc1` (configuration not stated), the AC50 under setting [1] is 11.2 µM [falling, partial curve, poor fit]. With `COC(=O)c1cccc(NC(=O)NC(=O)c2ccc(Cl)cc2)c1`, the AC50 under setting [1] was 0.1 µM [falling, full curve, poor fit].

On to `Cc1ccccc1OC(=O)C1C(c2ccccc2)C(C(=O)O)C1c1ccccc1` (configuration not stated), for which the AC50 under setting [1] is 14.6 µM [rising, partial curve]. The same measure, in the same setting: with `NNC(=O)CN1C(c2ccc(Cl)cc2)=Nc2ccc(Br)cc2C1c1ccccc1` (configuration not stated) the figure was 35.5 µM [falling, single point]; with `CC(C)c1ccc(NC(=O)Nc2cnccn2)cc1`, 0.355 µM [rising, full curve, poor fit]; with `COc1ccccc1CN(Cc1cc2cc(C)ccc2[nH]c1=O)Cc1nnnn1Cc1ccco1`, 17.8 µM [falling, single point].

As to `Cc1ccc(C(=O)NC(=S)Nc2cccnc2Cl)cc1`, under setting [1], the AC50 is 15.8 µM [falling, partial curve]. Same read-out and setting: with `COCCC(=O)N1CCCC(C(=O)c2ccc3c4c(cccc24)CC3)C1` (configuration not stated) the figure was 35.5 µM [falling, single point]; with `CC(=O)c1nnn(-c2c(F)cccc2F)c1C`, 0.501 µM [rising, full curve, poor fit]; with `Cc1c(C(=O)N2CCCC(C(F)(F)F)C2)oc2ccccc12` (configuration not stated), 1.03 µM [rising, full curve, poor fit]. As for `COc1cccc(-c2cc(C(=O)NCc3cccs3)no2)c1`, the AC50 under setting [1] was 22.4 µM [falling, single point]. For the compound `COc1ccccc1CCNC(=O)C(=O)NCC(c1ccco1)S(=O)(=O)c1ccc(F)cc1` (configuration not stated), the AC50 under setting [1] is 1.78 µM [rising, partial curve, poor fit]. For the compound `Cc1nc2ccc(C(=O)O)cc2c2c1CC(C)S2` (configuration not stated), the concentration at half-maximal activity (AC50) is 1.64 µM [rising, full curve] under setting [1] and 1.16 µM [rising, partial curve, poor fit] under setting [2]. On to `Cc1ccsc1/C=N/NC(=O)c1ccc2nc[nH]c2c1`, for which the concentration at half-maximal activity (AC50) under setting [1] is 18.4 µM [falling, partial curve]. For `COc1ccc(OC)c(N2CC(O)=C(c3nc4ccccc4s3)C2=N)c1`, the half-maximal activity concentration (AC50) runs as follows: under setting [1], 12.6 µM [falling, partial curve, poor fit]; under setting [2], 35.5 µM [rising, partial curve, poor fit]. For `COc1ccc(C(=O)Nn2c(SCc3ccc([N+](=O)[O-])cc3)nc3ccccc3c2=O)cc1`, the AC50 under setting [1] is 12.6 µM [falling, partial curve].

In the case of `CCOc1ccc2[nH]c3c(N4CCc5ccccc5C4)ncnc3c2c1`, the half-maximal activity concentration (AC50) reads like this: under setting [1], 14.1 µM [falling, partial curve]; under setting [2], 7.94 µM [rising, partial curve, poor fit]. As for `O=C(CCCSc1ccccc1)Nc1ccc(Cl)c(S(=O)(=O)N2CCOCC2)c1`, under setting [1], the AC50 was 32.6 µM [falling, single point]. `O=C1NC(=O)C(CC(=O)N(Cc2cccs2)C2(C(=O)NC3CCCC3)CCCCC2)N1` (configuration not stated): the AC50 under setting [1] is 1.64 µM [falling, partial curve].

Take `O=C(/C=C/c1ccc(Cl)cc1Cl)NC(=S)Nc1ccccn1`: the half-maximal activity concentration (AC50) under setting [1] was 10 µM [falling, partial curve, poor fit]. In the case of `COc1ccc(Nc2nc(S(=O)(=O)c3ccc(C)cc3)c(Cl)s2)cc1`, the AC50 under setting [1] is 5.17 µM [falling, full curve, poor fit]. For `C(=N/Nc1cc(N2CCOCC2)nc(N2CCOCC2)n1)/c1ccccc1`, the AC50 under setting [1] is 18.4 µM [falling, single point].

Regarding `CCn1c(CN2CCN(C(c3ccccc3)c3ccccc3)CC2)nc2c1c(=O)n(C)c(=O)n2C`, the concentration at half-maximal activity (AC50) under setting [1] was 11.2 µM [falling, partial curve]. As to `COc1ccc(-c2ccc(SCC(=O)Nc3cc(C)on3)nn2)cc1OC`, the AC50 under setting [1] was 23.1 µM [falling, single point]. The same measure, in the same setting: with `CCOc1ccc(-c2cc(CCCC(=O)NCCC(C)C)no2)cc1` the figure was 6.31 µM [falling, partial curve, poor fit]; with `N#CC1=C(N)OC2=C(C(=O)CC(c3ccccc3)C2)C1c1cccnc1` (configuration not stated), 32.6 µM [falling, single point]; with `Cc1nnc(NC(=O)c2cc(-c3ccco3)nc3ccccc23)s1`, 23.1 µM [falling, partial curve, poor fit]. Turning to `N/C(=N\OC(=O)c1ccc(Cl)cc1Cl)c1cccnc1`, the concentration at half-maximal activity (AC50) under setting [1] is 0.708 µM [rising, full curve, poor fit]. As to `N#CCCN1CCN(S(=O)(=O)c2ccc3c(c2)OCCCO3)CC1`, under setting [1], the concentration at half-maximal activity (AC50) is 32.6 µM [rising, single point]. With `Cc1cccc(C(=O)Nc2nccs2)c1[N+](=O)[O-]`, under setting [1], the half-maximal activity concentration (AC50) was 18.4 µM [falling, single point]. For `COc1ccc(C(=O)N/C(=C\c2cccc3ccccc23)C(=O)NCCc2c[nH]c3ccccc23)cc1OC`, under setting [1], the concentration at half-maximal activity (AC50) is 2.82 µM [falling, partial curve, poor fit]. In the case of `Cn1cc(Br)c(C(=O)Nc2sc3c(c2C#N)CCC3)n1`, the half-maximal activity concentration (AC50) under setting [1] was 3.16 µM [rising, full curve, poor fit]. As for `O=C(OCc1ccccc1F)c1cc2ccccc2cc1O`, under setting [1], the AC50 is 15.8 µM [rising, partial curve, poor fit].

Consider `CN(Cc1ccccc1)c1nc(N)c([N+](=O)[O-])c(NCc2ccccc2)n1`, for which the AC50 under setting [1] is 3.66 µM [rising, full curve, poor fit]. On to `COc1ccc(N/C(=C(/C(Cl)=C(Cl)Cl)[N+](=O)[O-])n2nnc3ccccc32)cc1`, for which the AC50 under setting [1] was 0.00461 µM [falling, full curve, poor fit]. On to `COc1ccc(C2=NS(=O)(=O)N(C)C(C(=O)N3CCC(C)CC3)=C2)cc1`, for which the half-maximal activity concentration (AC50) under setting [1] is 0.501 µM [rising, full curve, poor fit]. With `CS(=O)(=O)NCCSCc1c(Cl)cccc1Cl`, the AC50 under setting [1] is 7.31 µM [rising, partial curve, poor fit]. As to `O=C(/C=C/c1cn(CC(O)CN2CCCCC2)c2ccccc12)c1ccccc1` (configuration not stated), under setting [1], the AC50 was 10 µM [falling, partial curve, poor fit].

For `CCOC(=O)N1CCC(NC(=O)Cn2ncc3ccccc32)CC1`, the concentration at half-maximal activity (AC50) under setting [1] was 2.59 µM [rising, single point].

As to `CCC(CO)Oc1cc(NCc2ccc(O)cc2)c2ncn(C(C)C)c2c1` (configuration not stated), under setting [1], the AC50 is 0.291 µM [rising, full curve, poor fit]. The same measure, in the same setting: with `COc1ccc(Cl)cc1NC(=O)CN(C)C(=O)Cc1ccc(-c2ccccc2)cc1` the figure was 29.1 µM [falling, single point]. As for `Cc1cccc(C(=O)N/N=C/c2ccccn2)c1`, under setting [1], the AC50 is 16.4 µM [falling, single point]. As to `CCCCCNc1nc(NCCCO)c(C#N)c2c1CN(C)CC2`, under setting [1], the AC50 is 9.2 µM [rising, partial curve, poor fit].

For the compound `Cc1nc(-c2ccccc2)sc1-c1ccn[nH]1`, the half-maximal activity concentration (AC50) under setting [1] is 12.6 µM [falling, single point]. In the case of `CCOC(=O)CCSc1nc(C)c2cc(C)ccc2n1`, under setting [1], the AC50 was 0.291 µM [rising, full curve, poor fit]. For `Cn1cc(/C=C/c2cc[n+](C)cc2)c2cc(Cl)ccc21`, the concentration at half-maximal activity (AC50) under setting [1] was 0.631 µM [falling, full curve, poor fit].

Take `Cc1ccc(S(=O)(=O)Nc2ccc(NC(=O)Nc3cccc(C(F)(F)F)c3)cc2)cc1`: the concentration at half-maximal activity (AC50) under setting [1] is 16.4 µM [falling, partial curve, poor fit]. Same read-out and setting: with `COCC(=O)Nc1ccc(C(=O)Nc2ccccc2Cl)cc1` the figure was 10 µM [falling, partial curve, poor fit]. Consider `CCN(CC)c1ccc(/C=N\NC(=O)c2cccc3cc[nH]c23)cc1`, for which the half-maximal activity concentration (AC50) runs as follows: under setting [1], 35.5 µM [falling, partial curve, poor fit]; under setting [2], 20 µM [falling, single point]. Take `Cn1c(=O)c2c(nc(Oc3cccc(O)c3)n2C)n(C)c1=O`: the half-maximal activity concentration (AC50) under setting [1] was 1.26 µM [falling, partial curve, poor fit]. As for `Clc1ccc(-c2nnc3n2-c2ccccc2SC3)cc1`, under setting [1], the half-maximal activity concentration (AC50) is 35.5 µM [falling, single point]. Consider `Cc1ccccc1-n1c(-c2csc(C)c2C)n[nH]c1=S`, for which, under setting [1], the concentration at half-maximal activity (AC50) is 23.1 µM [falling, partial curve, poor fit]. Still for that read-out and setting: with `CCN1CCN(C(=O)c2cc3cc(Cl)ccc3[nH]2)CC1` the figure was 31.6 µM [falling, single point]; with `COC(=O)c1c(-c2ccco2)csc1NC(=O)C1CC=CCC1C(=O)O` (configuration not stated), 0.501 µM [falling, partial curve, poor fit]. Same read-out and setting: with `CC(C)Cc1nc2oc3c(NCC4CCCO4)ncnc3c2c2c1CCC2` (configuration not stated) the figure was 1.41 µM [rising, full curve, poor fit]; with `Cc1cccc(C(=O)NCC(c2ccco2)N(C)C)c1` (configuration not stated), 35.5 µM [rising, partial curve, poor fit]; with `CCc1nn2c(=O)cc(CSc3nc(C)cc(=O)[nH]3)nc2s1`, 1.46 µM [rising, partial curve, poor fit]. Take `COCCn1c(SCC(=O)Nc2ccc(S(=O)(=O)N3CCOCC3)cc2)nc2ccccc21`: under setting [1], the AC50 was 15.8 µM [falling, single point].

In the case of `Cc1ccc(-c2cc(-c3ccccc3C)[nH]n2)c(O)c1`, the AC50 was 29.1 µM [falling, single point] under setting [1] and 18.4 µM [rising, partial curve, poor fit] under setting [2]. Turning to `Cc1nc2ccccc2c(N)c1C(=O)/C=C/c1ccccc1`, the concentration at half-maximal activity (AC50) under setting [1] is 8.91 µM [falling, partial curve, poor fit]. Still for that read-out and setting: with `CCOC(=O)N1C(=O)C2(CCCCC2)N(c2ccccc2Cl)C1=S` the figure was 29.1 µM [falling, single point].

Source of the values: PubChem BioAssay AID493014 (National Center for Advancing Translational Sciences (NCATS), 2011).
